The chains are these.
B1: BCAM1012, putative histone-like protein (protein, UniProt B4EFM0 1-149)
chain: MATSAKKVAKKAAAPATKKVAAKKAAPAKKVVAKKAVAKAAPAAPTPLKDKFTKASLATHIAERAAVEVKAVKAVLAALENVVLGSVHKKGAGEFTLPGLLKITAQVVPAKKKRFGKDPFTGEERWFPAKPASVRVKARALKKLKDAAA
B2: HctB, histone H1-like protein (protein, UniProt B4E5V7 1-216)
chain: MATAKKKPAAKKVAAKKTVAKKAAAPAKKAAVKKVAAKKVAVKKVAAKKAAPAKKAAAKKVAAKKVATKKVAAKKVAAKKAAPAKKAAAKKVAAKKVAVKKVAAKKAAPAKKAAAKKAAPAKKAAAKKAAPAKKAAAKKAAPAKKAAAKKAAPAKKAAPAKKAAAPAKKAAAPKKAVVKKAAPATTASTASVAPASGVKTALNPAAAWPFPTGSRP

These are yes or no findings as the source states them, for the method shown. Binding seen in cells or lysates may run through a third protein. A yes stands for co-enrichment or nearness to the bait. Other partners may have been found. Where a sequence is shown, tags or fusion partners need not be part of it.

The test concerns the target T1, FLAG-tagged BCAS0292 (Bnr1) (Burkholderia cenocepacia) (UniProt B4EQ58).
T1 sequence: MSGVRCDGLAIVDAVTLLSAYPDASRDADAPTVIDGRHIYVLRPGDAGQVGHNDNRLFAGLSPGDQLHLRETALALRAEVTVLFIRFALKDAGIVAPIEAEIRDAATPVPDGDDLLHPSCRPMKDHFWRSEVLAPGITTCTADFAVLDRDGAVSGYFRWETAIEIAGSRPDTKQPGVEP
Put plainly: affinity purification with mass spectrometry; FLAG-BCAS0292 from E. coli lysate immobilised on anti-FLAG resin and washed (bait); B. cenocepacia K56-2 lysate (DNAse treated) as prey, 4°C overnight, TBS washes; bands cut from SDS-PAGE and identified by LC-MS; three independent pull-downs; only the target purified.
Take protein translocase subunit SecA: the binding entry is recorded as “binds”.

With B1, the binding result is “binds”.

Consider B2, for which the binding result is given as “binds”.

The values are drawn from article PMC9060813, “Protein with negative surface charge distribution, Bnr1, shows characteristics of a DNA‐mimic protein and may be involved in the adaptation of Burkholderia cenocepacia” (MicrobiologyOpen, 2022).
